These are yes or no findings as the source states them, for the method shown. Binding seen in cells or lysates may run through a third protein. Some results given as binding are weak or reduced against the parent protein; the word gives no strength.
Molecular target: Protein kinase casein kinase 2 (CK2) (rat (endogenous in primary rat articular chondrocytes)) (UniProt P19139)
Experiment: co-IP; extracts of primary rat articular chondrocytes incubated with antibodies, precipitated with protein A-agarose, western blot; untreated control cells (CK2-HSP90 also after DRB treatment)

The chains behind the UniProt entries cited, without tags or fusion partners.
UniProt P19139: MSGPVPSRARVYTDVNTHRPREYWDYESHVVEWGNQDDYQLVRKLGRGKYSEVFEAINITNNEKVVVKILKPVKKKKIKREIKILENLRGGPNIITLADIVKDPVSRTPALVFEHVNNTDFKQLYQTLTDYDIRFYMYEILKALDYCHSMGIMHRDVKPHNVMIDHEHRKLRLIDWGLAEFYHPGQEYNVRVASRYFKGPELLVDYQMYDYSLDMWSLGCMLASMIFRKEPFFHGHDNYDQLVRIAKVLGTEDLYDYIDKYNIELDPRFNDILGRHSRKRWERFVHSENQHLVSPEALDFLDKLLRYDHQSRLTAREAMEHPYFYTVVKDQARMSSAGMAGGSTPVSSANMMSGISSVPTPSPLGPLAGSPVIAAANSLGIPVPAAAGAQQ

B1: alpha B-crystallin (heat-shock protein b5) (protein, UniProt P23928 1-175)
chain: MDIAIHHPWIRRPFFPFHSPSRLFDQFFGEHLLESDLFSTATSLSPFYLRPPSFLRAPSWIDTGLSEMRMEKDRFSVNLDVKHFSPEELKVKVLGDVIEVHGKHEERQDEHGFISREFHRKYRIPADVDPLTITSSLSSDGVLTVNGPRKQASGPERTIPITREEKPAVTAAPKK
For B1, the binding was “binds”.

Reference: article PMC5112790
